Measured values reported in article PMC3760632.
No constants are given. Whether binding was seen depends on the method and setting. In cells and extracts the contact can be indirect. Some entries that bind do so weakly or less than the wild type.

Chains of the proteins cited; added tags and fusions are not shown. Residues count along the entry.
UniProt P38646, residues 47-679: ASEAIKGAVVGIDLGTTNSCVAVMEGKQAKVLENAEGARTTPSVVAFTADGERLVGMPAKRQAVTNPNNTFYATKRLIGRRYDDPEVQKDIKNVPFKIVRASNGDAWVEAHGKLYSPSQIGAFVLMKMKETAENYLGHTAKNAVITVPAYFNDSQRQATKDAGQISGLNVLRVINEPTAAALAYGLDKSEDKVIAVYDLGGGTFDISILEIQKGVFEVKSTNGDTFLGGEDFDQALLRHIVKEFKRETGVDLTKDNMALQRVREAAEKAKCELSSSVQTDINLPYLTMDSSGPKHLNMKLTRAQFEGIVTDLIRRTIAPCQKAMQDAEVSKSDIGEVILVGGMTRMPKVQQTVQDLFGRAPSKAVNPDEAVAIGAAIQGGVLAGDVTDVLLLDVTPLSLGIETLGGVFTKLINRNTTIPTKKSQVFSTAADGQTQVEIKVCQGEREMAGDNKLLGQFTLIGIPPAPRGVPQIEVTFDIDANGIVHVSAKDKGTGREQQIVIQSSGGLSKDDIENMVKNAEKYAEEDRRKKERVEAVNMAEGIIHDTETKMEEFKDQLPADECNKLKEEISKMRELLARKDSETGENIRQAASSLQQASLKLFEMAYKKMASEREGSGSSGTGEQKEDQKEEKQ

Molecular target: HIV-1 Nef, full-length (HIV-1) (UniProt P03406)
Assay: co-IP; second set of coimmunoprecipitation experiments with full-length Nef, without and with the SMRwt peptide

For mortalin (from UniProt P38646 47-679), the binding was “binds”.
